Positions count from the first letter of the chain named. Results are given in words; binding and its absence hold for the method and conditions named. For some assays here: Binding can be weak; no strength is given. For some assays here: Sequences can lack the tags named with a protein. Each block holds one molecule with its values, some of them ahead of it.
Legend:
[1] = molecular target: T1, Papi (Drosophila) (UniProt Q9VQ91); test: ReLo
T1 sequence: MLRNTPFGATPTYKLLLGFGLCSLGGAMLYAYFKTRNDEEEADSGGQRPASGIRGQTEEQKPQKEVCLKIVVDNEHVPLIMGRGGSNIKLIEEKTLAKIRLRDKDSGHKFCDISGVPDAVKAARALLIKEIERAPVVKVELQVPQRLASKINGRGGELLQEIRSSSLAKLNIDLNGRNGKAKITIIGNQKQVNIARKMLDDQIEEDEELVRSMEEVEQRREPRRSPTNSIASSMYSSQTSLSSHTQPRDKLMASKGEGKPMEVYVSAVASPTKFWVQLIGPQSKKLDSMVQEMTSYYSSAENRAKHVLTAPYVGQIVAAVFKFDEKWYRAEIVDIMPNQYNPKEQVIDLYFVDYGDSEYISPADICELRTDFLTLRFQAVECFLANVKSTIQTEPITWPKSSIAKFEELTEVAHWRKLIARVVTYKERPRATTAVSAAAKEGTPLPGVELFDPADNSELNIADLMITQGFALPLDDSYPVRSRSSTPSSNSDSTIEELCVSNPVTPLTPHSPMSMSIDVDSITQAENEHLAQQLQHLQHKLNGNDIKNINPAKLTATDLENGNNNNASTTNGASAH

By UniProt entry, the sequences of proteins in these tests, tags left out. Where a name states a change or a piece, a line headed by the entry shows the natural chain unless it says otherwise.
UniProt Q9VKM1: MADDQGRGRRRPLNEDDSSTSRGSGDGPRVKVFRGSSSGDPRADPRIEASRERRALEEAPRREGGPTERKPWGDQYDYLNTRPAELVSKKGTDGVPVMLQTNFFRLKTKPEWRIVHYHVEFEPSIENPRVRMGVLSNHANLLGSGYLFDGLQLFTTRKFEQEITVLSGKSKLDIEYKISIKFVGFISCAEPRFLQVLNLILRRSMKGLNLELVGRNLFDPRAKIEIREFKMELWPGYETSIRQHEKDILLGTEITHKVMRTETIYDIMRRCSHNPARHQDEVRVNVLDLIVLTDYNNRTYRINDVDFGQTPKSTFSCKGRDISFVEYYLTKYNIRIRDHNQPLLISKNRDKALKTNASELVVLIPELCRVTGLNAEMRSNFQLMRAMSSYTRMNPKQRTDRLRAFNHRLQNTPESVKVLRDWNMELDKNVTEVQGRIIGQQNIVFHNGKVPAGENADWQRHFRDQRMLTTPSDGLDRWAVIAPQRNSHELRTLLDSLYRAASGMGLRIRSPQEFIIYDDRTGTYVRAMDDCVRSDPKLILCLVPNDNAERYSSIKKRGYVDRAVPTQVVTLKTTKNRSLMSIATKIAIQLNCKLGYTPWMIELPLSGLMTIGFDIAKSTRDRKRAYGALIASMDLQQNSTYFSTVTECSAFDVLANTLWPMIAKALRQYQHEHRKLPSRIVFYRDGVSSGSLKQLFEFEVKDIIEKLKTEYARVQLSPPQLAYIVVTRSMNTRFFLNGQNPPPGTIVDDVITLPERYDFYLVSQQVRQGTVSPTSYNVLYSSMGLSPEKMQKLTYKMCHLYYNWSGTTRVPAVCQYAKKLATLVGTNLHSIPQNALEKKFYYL

[2] = molecular target: T2, Spindle E (Drosophila) (UniProt Q9VF26); test: ReLo
T2 sequence: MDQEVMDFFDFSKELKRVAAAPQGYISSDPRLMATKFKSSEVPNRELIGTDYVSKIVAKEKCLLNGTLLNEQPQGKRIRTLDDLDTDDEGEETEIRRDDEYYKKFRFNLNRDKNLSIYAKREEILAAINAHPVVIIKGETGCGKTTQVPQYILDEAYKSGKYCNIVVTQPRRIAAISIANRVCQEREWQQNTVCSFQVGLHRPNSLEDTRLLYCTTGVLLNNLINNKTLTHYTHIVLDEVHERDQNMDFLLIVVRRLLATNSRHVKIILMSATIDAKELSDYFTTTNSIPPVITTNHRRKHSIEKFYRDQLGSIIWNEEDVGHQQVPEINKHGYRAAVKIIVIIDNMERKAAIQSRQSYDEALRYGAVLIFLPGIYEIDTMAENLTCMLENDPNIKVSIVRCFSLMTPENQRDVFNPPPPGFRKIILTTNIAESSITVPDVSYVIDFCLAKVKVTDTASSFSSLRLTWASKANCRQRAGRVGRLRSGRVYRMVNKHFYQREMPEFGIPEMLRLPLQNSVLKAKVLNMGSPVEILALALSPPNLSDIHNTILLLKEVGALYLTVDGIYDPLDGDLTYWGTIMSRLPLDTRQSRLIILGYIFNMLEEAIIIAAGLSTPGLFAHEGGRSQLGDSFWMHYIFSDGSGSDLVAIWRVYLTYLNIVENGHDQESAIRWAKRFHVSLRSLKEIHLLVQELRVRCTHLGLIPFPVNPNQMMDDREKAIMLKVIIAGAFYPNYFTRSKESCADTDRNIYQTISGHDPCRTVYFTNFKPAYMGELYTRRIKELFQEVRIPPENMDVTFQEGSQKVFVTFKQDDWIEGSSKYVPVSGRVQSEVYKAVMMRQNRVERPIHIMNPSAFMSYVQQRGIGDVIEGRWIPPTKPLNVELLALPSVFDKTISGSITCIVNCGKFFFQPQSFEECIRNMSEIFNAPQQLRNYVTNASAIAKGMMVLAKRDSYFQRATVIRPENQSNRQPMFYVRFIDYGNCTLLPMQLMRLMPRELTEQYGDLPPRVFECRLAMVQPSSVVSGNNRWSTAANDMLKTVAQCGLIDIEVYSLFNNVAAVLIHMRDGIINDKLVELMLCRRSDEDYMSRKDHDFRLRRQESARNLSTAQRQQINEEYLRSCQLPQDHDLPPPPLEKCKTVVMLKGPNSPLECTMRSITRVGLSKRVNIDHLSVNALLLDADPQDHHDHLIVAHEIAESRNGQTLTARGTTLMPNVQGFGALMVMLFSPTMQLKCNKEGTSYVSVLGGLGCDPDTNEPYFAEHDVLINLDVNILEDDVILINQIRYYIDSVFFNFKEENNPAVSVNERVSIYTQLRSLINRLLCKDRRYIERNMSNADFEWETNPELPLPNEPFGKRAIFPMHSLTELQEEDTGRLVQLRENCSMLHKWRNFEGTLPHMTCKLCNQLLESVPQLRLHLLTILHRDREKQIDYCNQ

[3] = molecular target: T3, Spindle E MUT (Drosophila) (UniProt Q9VF26); test: ReLo
T3 sequence: T2 sequence with K339E, V342E

[4] = molecular target: GST-superfolder-GFP (GsfG)-Tejas (Drosophila); test: condition: 2 nmol MBP fusion, 1 nmol GST fusion in 100 µl
[5] = molecular target: GST-Tejas (Drosophila); test: condition: 5 nmol MBP fusion, 1 nmol GST fusion in 100 µl

binding [1]: no binding
Molecule: Piwi lacking the N-terminus (residues 1-90 deleted) (from UniProt Q9VKM1) (domain or fragment)

binding [2]: binds
binding [3]: no binding
Molecule: Tejas (Drosophila)

binding [4]: no binding
B1: MBP-Maelstrom lacking aa 413-459 (domain or fragment, UniProt Q9VNS0 1-412)
chain: MAPKKHSGFMMFVNEWRNRNAEGRRMTLAQAVSHCGTIWEKMNTQQRGPYNSGGKDANVAQRAKRESSNGHGQVDKAQREATESLMDMKRTIERLVLNAKMSHDLENAKFVFVAFNYFTKALTTDVYVPAEFAACEYSLKEGIRSIYSTMIDPGQIIFGQGSDALLHSSTTHDLPLPPNALGEKNMTKLYRNIVDYLSKCQGKGKTLVVFTPAENITMVKSCFRYLECDDDFRDGGEKIQVFDIQYLLFILKKEVMNVADLNDEKINKFATDAFFKKDFFEFTAGIACQYHEDNDRTKYCTQSMVTRWAYTFTDFMCGDLAITVQPGKHIPAQTKPNYLIISSYASSLDHESSFDSFYSLPGSGVKKESQPEACSLSSSRLSVASSSYKPIDHTSFAANLNEVSEFPSLGMR

binding [5]: no binding
B2: MBP-fused Mael C-terminus (aa 413-459), mutated version (domain or fragment, UniProt Q9VNS0 413-459)
chain: NSSKHHGIAASAQREWNARNLPTHSRLIRKESDNDESENGADGKLKK

Source: publication doi:10.1101/2024.05.31.596839
